Reference: PubChem BioAssay AID272 (DTP/NCI, 2004)
The list is a part of this screen's results and no random one: it gathers tests that were run many times, whatever their T/C, doses with no T/C, and many T/C values between a quarter and a half above the control. Further doses and runs are listed elsewhere. T/C gives the treated animals as a percentage of the vehicle group. Schedules are NCI's codes, taken here to give the interval after Q, in days (D) or hours (H), and the number of doses after X. Some entries give survivors of the animals treated and no T/C: the source holds a T/C of zero for them, seemingly a mark for toxic or unscored doses. Some doses without a T/C left all or most animals alive at the check, yet need not have been tolerated: the source hardly ever lists a survival T/C far under the control, and the zero likely stands for such cases as well. Survivors were counted at the toxicity check, usually on the fifth day, unless a day is given; later deaths do not show. Some entries were tested several times; the values are given in rising order. For survival time, this PubChem deposit counts one and a half times the control or more as active, and values a quarter to a half above the control carry no call in these data; other NCI protocols may use other cut-offs. Some T/C values carry the count of animals alive at the toxicity check (mostly the fifth day); where none is given, no animal had died by that day.

Tested on: Lewis lung carcinoma i.m., BDF1 mice, T/C %
Assay: NCI In Vivo Anticancer Drug Screen. Data for tumor model Lewis Lung Carcinoma (intramuscular) in B6D2F1 (BDF1) mice
Procedure, shortened: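 Compound given to mice with transplantable tumours; survival or tumour size compared against the vehicle control group, reported as T divided by C.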

[1] = T/C endpoint: median survival time, dose: 16.0 mg/kg/injection, schedule: Q08DX002 (ip), vehicle: Klucel (hydroxypropylcellulose) (HPC), higher T/C = longer survival
[2] = T/C endpoint: median survival time, dose: 64.0 mg/kg/injection, schedule: Q01DX009 (ip), vehicle: Klucel (hydroxypropylcellulose) (HPC), higher T/C = longer survival

CC(=O)n1cc(F)c(=O)[nH]c1=O
survivor count (T/C endpoint: median survival time, dose: 48.0 mg/kg/injection, schedule: Q01DX011 (ip), vehicle: saline, higher T/C = longer survival): 0 of 8
survivor count (T/C endpoint: median survival time, dose: 96.0 mg/kg/injection, schedule: Q01DX011 (ip), vehicle: saline, higher T/C = longer survival): 0 of 8

C[C@@H]1O[C@@H](O[C@H]2CC[C@]3(C=O)[C@H]4CC[C@]5(C)[C@@H](c6ccc(=O)oc6)CC[C@]5(O)[C@@H]4CC[C@]3(O)C2)[C@H](O)[C@H](O)[C@H]1O[C@@H]1O[C@H](CO)[C@@H](O)[C@H](O)[C@H]1O
survivor count (T/C endpoint: mean tumor weight (est.), dose: 2.5 mg/kg/injection, schedule: Q01DX011 (ip), vehicle: saline, higher T/C = larger tumour): 5 of 8
survivor count (T/C endpoint: median survival time, dose: 2.5 mg/kg/injection, schedule: Q01DX011 (ip), vehicle: saline, higher T/C = longer survival): 5 of 8
survivor count (T/C endpoint: median survival time, dose: 5.0 mg/kg/injection, schedule: Q01DX011 (ip), vehicle: saline, higher T/C = longer survival): 0 of 8

NC(Cc1ccc(N(CCCl)CCCl)cc1)C(=O)O (stereo not drawn)
survivor count (T/C endpoint: median survival time, dose: 4.0 mg/kg/injection, schedule: Q01DX011 (ip), vehicle: Klucel (hydroxypropylcellulose) (HPC), higher T/C = longer survival): 6 of 8
survivor count (T/C endpoint: median survival time, dose: 8.0 mg/kg/injection, schedule: Q01DX011 (ip), vehicle: Klucel (hydroxypropylcellulose) (HPC), higher T/C = longer survival): 2 of 8
survivor count (T/C endpoint: median survival time, dose: 16.0 mg/kg/injection, schedule: Q01DX011 (ip), vehicle: Klucel (hydroxypropylcellulose) (HPC), higher T/C = longer survival): 0 of 8

Cc1cc(N(CCCl)CCCl)ccc1CN1CCCN(Cc2ccc(N(CCCl)CCCl)cc2C)C1c1ccccc1O
survivor count (T/C endpoint: mean tumor weight, dose: 100.0 mg/kg/injection, schedule: Q01DX011 (ip), vehicle: saline with Tween-80, higher T/C = larger tumour): 4 of 8
survivor count (T/C endpoint: mean tumor weight, dose: 200.0 mg/kg/injection, schedule: Q01DX011 (ip), vehicle: saline with Tween-80, higher T/C = larger tumour): 4 of 8
survivor count (T/C endpoint: mean tumor weight, dose: 400.0 mg/kg/injection, schedule: Q01DX011 (ip), vehicle: saline with Tween-80, higher T/C = larger tumour): 1 of 8
survivor count (T/C endpoint: median survival time, dose: 100.0 mg/kg/injection, schedule: Q01DX011 (ip), vehicle: saline with Tween-80, higher T/C = longer survival): 4 of 8
survivor count (T/C endpoint: median survival time, dose: 200.0 mg/kg/injection, schedule: Q01DX011 (ip), vehicle: saline with Tween-80, higher T/C = longer survival): 4 of 8
survivor count (T/C endpoint: median survival time, dose: 400.0 mg/kg/injection, schedule: Q01DX011 (ip), vehicle: saline with Tween-80, higher T/C = longer survival): 1 of 8

O=c1cnn(C2OC(CO)C(O)C2O)c(=O)[nH]1 (stereo not drawn)
T/C (T/C endpoint: median survival time, dose: 75.0 mg/kg/injection, schedule: Q01DX009 (ip), vehicle: Klucel (hydroxypropylcellulose) (HPC), higher T/C = longer survival): 133 % of control
T/C (T/C endpoint: median survival time, dose: 150.0 mg/kg/injection, schedule: Q01DX009 (ip), vehicle: Klucel (hydroxypropylcellulose) (HPC), higher T/C = longer survival): 127 % of control
T/C (T/C endpoint: median survival time, dose: 300.0 mg/kg/injection, schedule: Q01DX009 (ip), vehicle: Klucel (hydroxypropylcellulose) (HPC), higher T/C = longer survival): 137 % of control
T/C (T/C endpoint: median survival time, dose: 600.0 mg/kg/injection, schedule: Q01DX009 (ip), vehicle: Klucel (hydroxypropylcellulose) (HPC), higher T/C = longer survival): 134 % of control
survivor count (T/C endpoint: median survival time, dose: 1200.0 mg/kg/injection, schedule: Q01DX009 (ip), vehicle: Klucel (hydroxypropylcellulose) (HPC), higher T/C = longer survival): 9 of 10

CCN1/C(=C/C(C)=C/c2sc3ccccc3[n+]2CC)Sc2ccccc21
T/C (T/C endpoint: mean tumor weight (est.), dose: 25.0 micrograms/kg/injection, schedule: Q01DX011 (ip), vehicle: saline with Tween-80, evaluated on day 12, higher T/C = larger tumour): 127 % of control
survivor count (T/C endpoint: mean tumor weight (est.), dose: 200.0 micrograms/kg/injection, schedule: Q01DX011 (ip), vehicle: saline with Tween-80, higher T/C = larger tumour): 4 of 8
survivor count (T/C endpoint: median survival time, dose: 25.0 micrograms/kg/injection, schedule: Q01DX011 (ip), vehicle: saline with Tween-80, higher T/C = longer survival): 8 of 8
survivor count (T/C endpoint: median survival time, dose: 200.0 micrograms/kg/injection, schedule: Q01DX011 (ip), vehicle: saline with Tween-80, higher T/C = longer survival): 4 of 8
survivor count (T/C endpoint: median survival time, dose: 400.0 micrograms/kg/injection, schedule: Q01DX011 (ip), vehicle: saline with Tween-80, higher T/C = longer survival): 0 of 8

COc1cc(C(=O)OC2CC34CCNC35CC(OC5(OC)C2O)c2cc3c(cc24)OCO3)ccc1O (stereo not drawn)
survivor count (T/C endpoint: mean tumor weight, dose: 8.0 mg/kg/injection, schedule: Q01DX011 (ip), vehicle: carboxymethylcellulose (CMC), higher T/C = larger tumour): 2 of 8
survivor count (T/C endpoint: median survival time, dose: 1.0 mg/kg/injection, schedule: Q01DX011 (ip), vehicle: carboxymethylcellulose (CMC), higher T/C = longer survival): 8 of 8
survivor count (T/C endpoint: median survival time, dose: 8.0 mg/kg/injection, schedule: Q01DX011 (ip), vehicle: carboxymethylcellulose (CMC), higher T/C = longer survival): 2 of 8

CCc1nc(N)nc(N)c1-c1ccc(Cl)cc1
survivor count (T/C endpoint: mean tumor weight, dose: 32.0 mg/kg/injection, schedule: Q06HX004 (ip), vehicle: Klucel (hydroxypropylcellulose) (HPC), higher T/C = larger tumour): 5 of 8
survivor count (T/C endpoint: mean tumor weight, dose: 32.0 mg/kg/injection, schedule: Q06HX012 (ip), vehicle: Klucel (hydroxypropylcellulose) (HPC), higher T/C = larger tumour): 5 of 8
survivor count (T/C endpoint: mean tumor weight, dose: 64.0 mg/kg/injection, schedule: Q01DX009 (ip), vehicle: Klucel (hydroxypropylcellulose) (HPC), higher T/C = larger tumour): 5 of 8
survivor count (T/C endpoint: mean tumor weight, dose: 100.0 mg/kg/injection, schedule: Q01DX011 (ip), vehicle: steroid suspending solution, higher T/C = larger tumour): 3 of 8
survivor count (T/C endpoint: mean tumor weight, dose: 128.0 mg/kg/injection, schedule: Q08DX002 (ip), vehicle: Klucel (hydroxypropylcellulose) (HPC), higher T/C = larger tumour): 4 of 8
survivor count (T/C endpoint: median survival time, dose: 12.5 mg/kg/injection, schedule: Q01DX011 (ip), vehicle: steroid suspending solution, higher T/C = longer survival): 8 of 8
T/C (T/C endpoint: median survival time, dose: 16.0 mg/kg/injection, schedule: Q01DX001 (sc), vehicle: Klucel (hydroxypropylcellulose) (HPC), higher T/C = longer survival): 130 % of control
T/C [1]: 126 % of control
survivor count [1]: 8 of 8
survivor count (T/C endpoint: median survival time, dose: 25.0 mg/kg/injection, schedule: Q01DX011 (ip), vehicle: steroid suspending solution, higher T/C = longer survival): 6 of 8
T/C (T/C endpoint: median survival time, dose: 32.0 mg/kg/injection, schedule: Q01DX001 (sc), vehicle: Klucel (hydroxypropylcellulose) (HPC), higher T/C = longer survival): 126 % of control
survivor count (T/C endpoint: median survival time, dose: 32.0 mg/kg/injection, schedule: Q01DX009 (ip), vehicle: Klucel (hydroxypropylcellulose) (HPC), higher T/C = longer survival): 7 of 8
T/C (T/C endpoint: median survival time, dose: 32.0 mg/kg/injection, schedule: Q04DX003 (ip), vehicle: Klucel (hydroxypropylcellulose) (HPC), higher T/C = longer survival): 135 % of control
survivor count (T/C endpoint: median survival time, dose: 32.0 mg/kg/injection, schedule: Q06HX004 (ip), vehicle: Klucel (hydroxypropylcellulose) (HPC), higher T/C = longer survival): 5 of 8
T/C (T/C endpoint: median survival time, dose: 32.0 mg/kg/injection, schedule: Q06HX008 (ip), vehicle: Klucel (hydroxypropylcellulose) (HPC), higher T/C = longer survival): 138 % of control
survivor count (T/C endpoint: median survival time, dose: 32.0 mg/kg/injection, schedule: Q06HX012 (ip), vehicle: Klucel (hydroxypropylcellulose) (HPC), higher T/C = longer survival): 5 of 8
survivor count (T/C endpoint: median survival time, dose: 50.0 mg/kg/injection, schedule: Q01DX011 (ip), vehicle: steroid suspending solution, higher T/C = longer survival): 3 of 8 and 6 of 8
T/C [2]: 133 % of control [6 of 8 alive]
survivor count [2]: 5 of 8
survivor count (T/C endpoint: median survival time, dose: 64.0 mg/kg/injection, schedule: Q01DX009 (oral), vehicle: Klucel (hydroxypropylcellulose) (HPC), higher T/C = longer survival): 0 of 8
survivor count (T/C endpoint: median survival time, dose: 64.0 mg/kg/injection, schedule: Q08DX002 (ip), vehicle: Klucel (hydroxypropylcellulose) (HPC), higher T/C = longer survival): 6 of 8
survivor count (T/C endpoint: median survival time, dose: 100.0 mg/kg/injection, schedule: Q01DX011 (ip), vehicle: steroid suspending solution, higher T/C = longer survival): 1 of 8 and 3 of 8
survivor count (T/C endpoint: median survival time, dose: 128.0 mg/kg/injection, schedule: Q01DX009 (ip), vehicle: Klucel (hydroxypropylcellulose) (HPC), higher T/C = longer survival): 0 of 8
survivor count (T/C endpoint: median survival time, dose: 128.0 mg/kg/injection, schedule: Q08DX002 (ip), vehicle: Klucel (hydroxypropylcellulose) (HPC), higher T/C = longer survival): 4 of 8

O=c1c(O)c(-c2ccc(O)c(O)c2)oc2cc(O)cc(O)c12
survivor count (T/C endpoint: median survival time, dose: 400.0 mg/kg/injection, schedule: Q02DX009 (ip), vehicle: saline, higher T/C = longer survival): 8 of 8
survivor count (T/C endpoint: median survival time, dose: 800.0 mg/kg/injection, schedule: Q02DX009 (ip), vehicle: saline, higher T/C = longer survival): 5 of 8
survivor count (T/C endpoint: median survival time, dose: 1600.0 mg/kg/injection, schedule: Q02DX009 (ip), vehicle: saline, higher T/C = longer survival): 2 of 8

Cc1ccc2c(ccc(/C=C/c3ccc(O)c4ncccc34)[n+]2C)c1
survivor count (T/C endpoint: mean tumor weight, dose: 75.0 mg/kg/injection, schedule: Q01DX011 (ip), vehicle: saline with Tween-80, higher T/C = larger tumour): 2 of 8
survivor count (T/C endpoint: median survival time, dose: 75.0 mg/kg/injection, schedule: Q01DX011 (ip), vehicle: saline with Tween-80, higher T/C = longer survival): 2 of 8
survivor count (T/C endpoint: median survival time, dose: 150.0 mg/kg/injection, schedule: Q01DX011 (ip), vehicle: saline with Tween-80, higher T/C = longer survival): 0 of 8
survivor count (T/C endpoint: median survival time, dose: 300.0 mg/kg/injection, schedule: Q01DX011 (ip), vehicle: saline with Tween-80, higher T/C = longer survival): 0 of 8

Cc1ccc2c(C)c3ccc4ccccc4c3c[n+]2c1
survivor count (T/C endpoint: mean tumor weight (est.), dose: 75.0 mg/kg/injection, schedule: Q01DX011 (ip), vehicle: saline, higher T/C = larger tumour): 3 of 8
survivor count (T/C endpoint: median survival time, dose: 75.0 mg/kg/injection, schedule: Q01DX011 (ip), vehicle: saline, higher T/C = longer survival): 3 of 8
survivor count (T/C endpoint: median survival time, dose: 150.0 mg/kg/injection, schedule: Q01DX011 (ip), vehicle: saline, higher T/C = longer survival): 0 of 8
survivor count (T/C endpoint: median survival time, dose: 300.0 mg/kg/injection, schedule: Q01DX011 (ip), vehicle: saline, higher T/C = longer survival): 3 of 8
survivor count (T/C endpoint: median survival time, dose: 600.0 mg/kg/injection, schedule: Q01DX011 (ip), vehicle: saline, higher T/C = longer survival): 0 of 8
